One assay has as its target T1, SPECC1L-BirA* (BioID/MS) (UniProt Q69YQ0).
T1 sequence: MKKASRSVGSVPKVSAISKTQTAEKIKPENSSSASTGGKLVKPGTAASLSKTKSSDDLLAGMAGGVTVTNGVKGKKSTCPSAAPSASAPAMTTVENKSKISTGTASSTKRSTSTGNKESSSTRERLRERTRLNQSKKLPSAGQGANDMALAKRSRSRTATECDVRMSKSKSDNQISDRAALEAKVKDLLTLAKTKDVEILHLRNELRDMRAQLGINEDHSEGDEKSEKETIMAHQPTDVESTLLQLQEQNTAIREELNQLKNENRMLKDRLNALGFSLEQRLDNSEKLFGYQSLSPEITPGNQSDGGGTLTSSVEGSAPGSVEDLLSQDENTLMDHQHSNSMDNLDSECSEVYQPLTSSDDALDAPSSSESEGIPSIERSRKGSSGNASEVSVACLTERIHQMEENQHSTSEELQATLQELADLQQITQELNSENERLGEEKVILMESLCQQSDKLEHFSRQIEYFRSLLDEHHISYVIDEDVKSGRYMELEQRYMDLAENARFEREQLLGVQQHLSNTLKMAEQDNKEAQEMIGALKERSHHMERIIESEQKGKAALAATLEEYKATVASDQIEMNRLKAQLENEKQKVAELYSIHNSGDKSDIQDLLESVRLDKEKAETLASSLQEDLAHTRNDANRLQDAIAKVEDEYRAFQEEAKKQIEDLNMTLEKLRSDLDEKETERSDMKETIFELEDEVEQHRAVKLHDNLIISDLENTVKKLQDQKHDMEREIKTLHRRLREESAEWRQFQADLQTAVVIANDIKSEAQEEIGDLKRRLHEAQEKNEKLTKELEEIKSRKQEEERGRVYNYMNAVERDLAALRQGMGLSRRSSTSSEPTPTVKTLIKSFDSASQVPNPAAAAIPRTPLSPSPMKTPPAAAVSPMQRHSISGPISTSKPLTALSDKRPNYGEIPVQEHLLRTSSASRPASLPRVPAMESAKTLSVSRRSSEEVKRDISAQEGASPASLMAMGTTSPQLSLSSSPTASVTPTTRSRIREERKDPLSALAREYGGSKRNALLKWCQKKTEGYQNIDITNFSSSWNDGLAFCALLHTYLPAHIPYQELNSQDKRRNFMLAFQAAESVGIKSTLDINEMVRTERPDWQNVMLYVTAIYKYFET
In words: proximity labelling.

Protein sequences, listed by entry. Tags and fused reporters are not part of them. Residues count along the entry.
UniProt O14974: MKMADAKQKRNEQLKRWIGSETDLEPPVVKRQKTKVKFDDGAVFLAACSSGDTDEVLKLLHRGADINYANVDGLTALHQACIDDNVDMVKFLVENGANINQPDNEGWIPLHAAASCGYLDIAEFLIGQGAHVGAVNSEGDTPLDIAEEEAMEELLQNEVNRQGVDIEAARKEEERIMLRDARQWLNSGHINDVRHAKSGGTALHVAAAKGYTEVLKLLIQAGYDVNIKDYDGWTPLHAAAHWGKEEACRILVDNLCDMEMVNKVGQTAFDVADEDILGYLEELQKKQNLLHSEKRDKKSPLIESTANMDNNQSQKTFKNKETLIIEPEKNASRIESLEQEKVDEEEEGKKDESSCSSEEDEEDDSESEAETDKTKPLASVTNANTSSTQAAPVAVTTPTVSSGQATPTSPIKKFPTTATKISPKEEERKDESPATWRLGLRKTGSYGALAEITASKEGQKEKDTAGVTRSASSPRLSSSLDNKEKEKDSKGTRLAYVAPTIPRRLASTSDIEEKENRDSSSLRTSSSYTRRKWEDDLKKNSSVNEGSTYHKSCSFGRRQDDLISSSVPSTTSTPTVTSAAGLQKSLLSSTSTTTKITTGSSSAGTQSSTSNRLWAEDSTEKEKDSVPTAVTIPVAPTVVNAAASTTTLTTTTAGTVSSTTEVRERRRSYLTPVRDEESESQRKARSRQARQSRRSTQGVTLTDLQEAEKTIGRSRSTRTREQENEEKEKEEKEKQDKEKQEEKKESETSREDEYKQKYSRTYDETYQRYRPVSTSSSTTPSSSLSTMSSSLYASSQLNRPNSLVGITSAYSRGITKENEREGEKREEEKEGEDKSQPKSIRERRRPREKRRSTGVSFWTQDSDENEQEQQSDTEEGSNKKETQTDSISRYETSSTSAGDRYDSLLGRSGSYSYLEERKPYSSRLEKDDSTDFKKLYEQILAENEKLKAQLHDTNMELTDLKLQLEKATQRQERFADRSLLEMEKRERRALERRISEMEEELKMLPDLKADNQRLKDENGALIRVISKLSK
UniProt P62140: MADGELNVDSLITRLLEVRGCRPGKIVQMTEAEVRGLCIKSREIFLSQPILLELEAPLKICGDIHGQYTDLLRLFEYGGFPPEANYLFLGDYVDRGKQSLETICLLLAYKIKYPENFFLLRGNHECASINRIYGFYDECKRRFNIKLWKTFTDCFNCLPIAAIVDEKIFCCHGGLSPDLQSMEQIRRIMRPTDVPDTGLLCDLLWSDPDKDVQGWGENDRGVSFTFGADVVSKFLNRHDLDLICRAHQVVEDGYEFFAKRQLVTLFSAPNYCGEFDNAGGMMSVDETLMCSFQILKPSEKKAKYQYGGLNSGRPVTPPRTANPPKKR
UniProt P31431, residues 19-198: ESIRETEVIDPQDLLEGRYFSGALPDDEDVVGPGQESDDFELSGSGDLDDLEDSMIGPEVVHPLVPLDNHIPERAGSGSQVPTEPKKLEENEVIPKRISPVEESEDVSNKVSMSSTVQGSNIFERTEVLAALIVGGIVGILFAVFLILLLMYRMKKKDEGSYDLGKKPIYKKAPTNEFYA
UniProt P27816: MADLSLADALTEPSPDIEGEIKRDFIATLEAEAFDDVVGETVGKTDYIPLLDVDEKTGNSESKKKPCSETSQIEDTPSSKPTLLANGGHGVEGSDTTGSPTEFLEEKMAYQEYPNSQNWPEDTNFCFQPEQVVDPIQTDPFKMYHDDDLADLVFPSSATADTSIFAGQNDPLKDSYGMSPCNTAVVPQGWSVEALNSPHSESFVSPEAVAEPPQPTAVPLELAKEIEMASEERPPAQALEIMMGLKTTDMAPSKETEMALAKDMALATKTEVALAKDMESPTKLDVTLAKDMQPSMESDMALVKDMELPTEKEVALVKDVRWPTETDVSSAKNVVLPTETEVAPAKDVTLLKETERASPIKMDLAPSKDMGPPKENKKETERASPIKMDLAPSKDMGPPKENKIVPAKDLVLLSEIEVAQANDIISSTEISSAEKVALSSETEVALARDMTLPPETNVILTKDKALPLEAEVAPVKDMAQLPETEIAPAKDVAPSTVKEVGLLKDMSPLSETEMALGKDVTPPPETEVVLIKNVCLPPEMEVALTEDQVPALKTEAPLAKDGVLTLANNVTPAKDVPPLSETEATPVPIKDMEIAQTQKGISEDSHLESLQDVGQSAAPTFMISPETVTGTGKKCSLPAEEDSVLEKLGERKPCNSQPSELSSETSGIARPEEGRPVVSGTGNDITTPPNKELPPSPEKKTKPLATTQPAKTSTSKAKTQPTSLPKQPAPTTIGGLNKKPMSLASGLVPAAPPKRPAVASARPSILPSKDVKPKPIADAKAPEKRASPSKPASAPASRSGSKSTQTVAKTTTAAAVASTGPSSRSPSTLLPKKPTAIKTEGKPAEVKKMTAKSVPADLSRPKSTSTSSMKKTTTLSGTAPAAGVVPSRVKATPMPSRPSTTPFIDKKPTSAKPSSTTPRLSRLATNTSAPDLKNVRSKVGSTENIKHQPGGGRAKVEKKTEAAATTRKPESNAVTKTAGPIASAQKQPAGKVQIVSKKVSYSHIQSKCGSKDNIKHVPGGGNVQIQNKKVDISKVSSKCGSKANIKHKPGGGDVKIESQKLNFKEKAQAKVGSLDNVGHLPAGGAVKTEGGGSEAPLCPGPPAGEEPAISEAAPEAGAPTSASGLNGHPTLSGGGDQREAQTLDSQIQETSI
UniProt Q9BR76: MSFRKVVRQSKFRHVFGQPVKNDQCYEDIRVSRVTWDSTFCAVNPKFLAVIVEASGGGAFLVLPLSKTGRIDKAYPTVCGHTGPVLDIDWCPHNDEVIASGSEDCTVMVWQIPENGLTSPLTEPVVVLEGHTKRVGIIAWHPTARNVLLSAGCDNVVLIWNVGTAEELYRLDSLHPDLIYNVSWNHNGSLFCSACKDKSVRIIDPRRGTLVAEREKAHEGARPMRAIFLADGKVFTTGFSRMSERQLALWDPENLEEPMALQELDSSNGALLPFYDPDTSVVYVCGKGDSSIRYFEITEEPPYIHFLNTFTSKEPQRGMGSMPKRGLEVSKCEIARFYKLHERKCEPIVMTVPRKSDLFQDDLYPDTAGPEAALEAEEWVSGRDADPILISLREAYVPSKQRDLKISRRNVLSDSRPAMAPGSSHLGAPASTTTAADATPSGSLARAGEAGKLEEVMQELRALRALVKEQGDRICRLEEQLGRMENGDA
UniProt Q9ULV4: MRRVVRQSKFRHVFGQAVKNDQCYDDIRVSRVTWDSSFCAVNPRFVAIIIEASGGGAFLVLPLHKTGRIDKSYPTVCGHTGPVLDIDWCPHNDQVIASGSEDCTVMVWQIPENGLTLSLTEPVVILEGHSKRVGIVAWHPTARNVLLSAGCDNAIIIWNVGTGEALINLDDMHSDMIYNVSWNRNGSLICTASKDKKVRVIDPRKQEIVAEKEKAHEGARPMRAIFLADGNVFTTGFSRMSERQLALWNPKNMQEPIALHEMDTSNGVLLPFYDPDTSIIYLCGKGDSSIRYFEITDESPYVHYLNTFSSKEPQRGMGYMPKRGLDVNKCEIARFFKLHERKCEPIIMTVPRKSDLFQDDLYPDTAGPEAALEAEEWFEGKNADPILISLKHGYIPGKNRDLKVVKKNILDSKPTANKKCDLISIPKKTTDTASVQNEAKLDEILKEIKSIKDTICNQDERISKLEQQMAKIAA
UniProt P47756: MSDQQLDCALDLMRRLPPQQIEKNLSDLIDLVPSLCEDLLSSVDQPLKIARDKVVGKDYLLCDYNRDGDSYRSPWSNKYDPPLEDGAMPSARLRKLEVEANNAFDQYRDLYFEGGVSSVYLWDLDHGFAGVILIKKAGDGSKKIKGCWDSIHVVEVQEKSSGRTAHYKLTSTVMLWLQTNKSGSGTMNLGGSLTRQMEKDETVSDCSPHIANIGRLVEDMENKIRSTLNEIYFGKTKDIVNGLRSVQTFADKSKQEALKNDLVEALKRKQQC
UniProt Q14980: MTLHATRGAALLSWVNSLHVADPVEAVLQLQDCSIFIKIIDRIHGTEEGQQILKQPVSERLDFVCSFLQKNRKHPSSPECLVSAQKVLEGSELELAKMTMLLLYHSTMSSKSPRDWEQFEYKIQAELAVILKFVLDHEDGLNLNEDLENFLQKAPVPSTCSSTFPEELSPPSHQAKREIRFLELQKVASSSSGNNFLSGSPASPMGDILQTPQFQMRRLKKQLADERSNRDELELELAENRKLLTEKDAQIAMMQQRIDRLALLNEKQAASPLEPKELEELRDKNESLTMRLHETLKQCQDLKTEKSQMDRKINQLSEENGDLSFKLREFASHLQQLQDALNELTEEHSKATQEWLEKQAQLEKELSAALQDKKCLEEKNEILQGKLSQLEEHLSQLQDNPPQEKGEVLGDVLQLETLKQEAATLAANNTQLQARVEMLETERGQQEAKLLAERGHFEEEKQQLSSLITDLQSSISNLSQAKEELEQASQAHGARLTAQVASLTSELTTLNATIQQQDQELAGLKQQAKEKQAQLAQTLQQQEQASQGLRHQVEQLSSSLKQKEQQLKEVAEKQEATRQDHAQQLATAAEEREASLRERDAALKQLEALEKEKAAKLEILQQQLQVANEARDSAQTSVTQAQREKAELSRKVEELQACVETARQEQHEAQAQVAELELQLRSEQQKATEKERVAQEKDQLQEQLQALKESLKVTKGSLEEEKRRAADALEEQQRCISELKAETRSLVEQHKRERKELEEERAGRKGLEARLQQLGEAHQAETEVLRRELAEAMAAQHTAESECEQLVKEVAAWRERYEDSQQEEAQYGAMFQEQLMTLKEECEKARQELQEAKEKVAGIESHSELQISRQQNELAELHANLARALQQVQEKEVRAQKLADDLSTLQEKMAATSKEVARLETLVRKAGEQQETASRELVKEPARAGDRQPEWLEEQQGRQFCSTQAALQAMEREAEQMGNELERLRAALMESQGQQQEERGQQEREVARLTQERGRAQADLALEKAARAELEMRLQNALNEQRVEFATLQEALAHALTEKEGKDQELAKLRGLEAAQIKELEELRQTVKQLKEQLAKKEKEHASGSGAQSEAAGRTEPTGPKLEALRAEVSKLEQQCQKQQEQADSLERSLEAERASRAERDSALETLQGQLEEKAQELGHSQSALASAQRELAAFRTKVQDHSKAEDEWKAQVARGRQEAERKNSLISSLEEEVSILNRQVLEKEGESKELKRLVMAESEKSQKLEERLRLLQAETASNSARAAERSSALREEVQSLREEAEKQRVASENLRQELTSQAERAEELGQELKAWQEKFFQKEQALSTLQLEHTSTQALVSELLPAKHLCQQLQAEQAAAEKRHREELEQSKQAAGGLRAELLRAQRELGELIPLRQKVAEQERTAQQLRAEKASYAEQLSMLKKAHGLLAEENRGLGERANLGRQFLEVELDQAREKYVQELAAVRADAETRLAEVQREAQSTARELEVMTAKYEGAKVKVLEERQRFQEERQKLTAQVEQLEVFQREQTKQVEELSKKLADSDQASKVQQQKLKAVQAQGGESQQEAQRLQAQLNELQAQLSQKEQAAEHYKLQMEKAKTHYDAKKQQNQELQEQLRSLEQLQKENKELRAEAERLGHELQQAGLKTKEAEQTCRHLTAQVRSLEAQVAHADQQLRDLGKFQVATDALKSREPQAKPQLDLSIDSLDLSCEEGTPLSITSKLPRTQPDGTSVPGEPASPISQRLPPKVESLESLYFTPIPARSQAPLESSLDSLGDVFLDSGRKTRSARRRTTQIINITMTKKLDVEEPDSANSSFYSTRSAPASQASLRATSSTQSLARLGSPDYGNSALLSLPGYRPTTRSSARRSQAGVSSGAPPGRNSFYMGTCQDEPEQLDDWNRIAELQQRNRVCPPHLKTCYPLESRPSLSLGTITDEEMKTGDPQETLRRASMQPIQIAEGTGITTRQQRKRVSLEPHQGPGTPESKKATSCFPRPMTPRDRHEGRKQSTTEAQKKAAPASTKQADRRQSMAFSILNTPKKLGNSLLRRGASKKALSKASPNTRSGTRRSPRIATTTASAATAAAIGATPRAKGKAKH
UniProt Q14247: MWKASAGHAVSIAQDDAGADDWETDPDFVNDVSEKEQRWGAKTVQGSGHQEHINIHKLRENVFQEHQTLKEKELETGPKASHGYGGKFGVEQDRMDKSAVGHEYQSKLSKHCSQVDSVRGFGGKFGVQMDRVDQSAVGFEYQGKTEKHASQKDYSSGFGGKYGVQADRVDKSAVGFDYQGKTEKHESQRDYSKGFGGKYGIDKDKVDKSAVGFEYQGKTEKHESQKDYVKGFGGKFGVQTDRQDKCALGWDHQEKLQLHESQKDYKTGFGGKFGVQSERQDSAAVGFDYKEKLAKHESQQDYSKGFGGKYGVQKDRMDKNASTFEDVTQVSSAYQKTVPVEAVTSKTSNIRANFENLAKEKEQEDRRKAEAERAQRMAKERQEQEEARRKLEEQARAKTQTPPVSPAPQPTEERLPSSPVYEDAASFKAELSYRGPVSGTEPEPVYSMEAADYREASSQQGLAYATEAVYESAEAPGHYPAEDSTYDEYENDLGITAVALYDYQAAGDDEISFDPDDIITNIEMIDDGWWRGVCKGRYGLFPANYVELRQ

In assay [1] the target is MYPT1 (endogenous, U2OS) (human (endogenous in U2OS)) (UniProt O14974). Description: affinity purification with mass spectrometry.
The target in assay [2] is T2, BirA*-tagged SPECC1L-ΔCHD (UniProt Q69YQ0).
T2 sequence: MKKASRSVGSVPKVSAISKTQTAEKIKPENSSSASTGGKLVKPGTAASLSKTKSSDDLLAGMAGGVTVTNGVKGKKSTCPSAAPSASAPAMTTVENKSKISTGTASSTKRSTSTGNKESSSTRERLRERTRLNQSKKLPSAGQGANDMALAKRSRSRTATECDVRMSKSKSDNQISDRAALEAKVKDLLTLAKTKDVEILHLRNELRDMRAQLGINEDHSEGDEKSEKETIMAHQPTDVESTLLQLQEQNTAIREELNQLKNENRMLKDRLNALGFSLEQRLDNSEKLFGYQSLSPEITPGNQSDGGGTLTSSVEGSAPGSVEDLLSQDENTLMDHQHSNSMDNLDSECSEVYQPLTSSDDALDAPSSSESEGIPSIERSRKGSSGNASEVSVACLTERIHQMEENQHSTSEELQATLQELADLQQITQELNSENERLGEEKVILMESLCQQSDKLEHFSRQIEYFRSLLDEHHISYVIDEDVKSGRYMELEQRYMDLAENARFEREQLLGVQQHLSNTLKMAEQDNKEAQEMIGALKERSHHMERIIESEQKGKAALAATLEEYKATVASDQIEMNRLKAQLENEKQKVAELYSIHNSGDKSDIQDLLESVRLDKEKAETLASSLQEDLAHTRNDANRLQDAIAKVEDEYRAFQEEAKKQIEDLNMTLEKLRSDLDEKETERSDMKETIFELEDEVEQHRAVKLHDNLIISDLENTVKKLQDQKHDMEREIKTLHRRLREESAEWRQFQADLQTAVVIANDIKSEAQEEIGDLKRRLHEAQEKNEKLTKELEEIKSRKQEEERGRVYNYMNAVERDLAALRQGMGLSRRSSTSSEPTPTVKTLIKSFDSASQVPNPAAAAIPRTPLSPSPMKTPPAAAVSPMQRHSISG
Description: proximity labelling.

For the next assay, the target named is T3, SPECC1L-GFP (UniProt Q69YQ0).
T3 sequence: T1 sequence
In words: affinity purification with mass spectrometry.

For assay [3], the target named is T2, BirA*-tagged SPECC1L-ΔCHD. In words: proximity labelling. This is another data set of the same source.

Like-named read-outs stand apart in the source and are kept apart here. No constants are given. Whether binding was seen depends on the method and setting. Binding seen in cells or lysates may run through a third protein. Here binding means that the protein was enriched with, or labelled near, the bait; the list need not be complete. For some of these results: Where a sequence is shown, tags or fusion partners need not be part of it.

As for “CRK adaptor protein (endogenous) (from UniProt P46108 1-304)”, in the assay with SPECC1L-BirA* (BioID/MS), the binding entry is reported as “binds”.
Consider “PP1β (endogenous, U2OS) (from UniProt P62140 1-327) (enzyme)”, for which the binding result in assay [1] is “binds”.
As for “Syndecan SDC4 (endogenous) (from UniProt P31431 19-198)”, the binding result in assay [2] is given as “binds”.
For “Microtubule Associated Protein 4 (endogenous) (from UniProt P27816 1-1152)”, the binding entry (in assay [2]; with SPECC1L-BirA* (BioID/MS)) was “binds” in each case.
“Coronin-1B (endogenous) (from UniProt Q9BR76 1-489)”: the binding result (in assay [2]; in the assay with SPECC1L-BirA* (BioID/MS)) was “binds” throughout.
Take “Syndecan SDC2 (endogenous) (from UniProt P34741 19-201)”: the binding entry in assay [2] is reported as “binds”.
Take “CRKL adaptor protein (endogenous) (from UniProt P46109 1-303)”: in the assay with SPECC1L-BirA* (BioID/MS), the binding entry was “binds”.
Take “Coronin CORO1C (endogenous) (from UniProt Q9ULV4 1-474)”: in assay [2], the binding entry is reported as “binds”.
As to “myosin (MYO1B) (endogenous) (from UniProt O43795 1-1136)”, the binding entry in the assay with SPECC1L-BirA* (BioID/MS) is given as “binds”.
With “CAPZB (endogenous) (from UniProt P47756 1-272)”, the binding result (with SPECC1L-GFP; in assay [1]) was “binds” each time.
With “NuMA (nuclear mitotic apparatus) protein (endogenous, U2OS) (from UniProt Q14980 1-2115)”, the binding entry (with SPECC1L-GFP; in assay [1]) was “binds” throughout.
Turning to “MT polymerase CKAP5 (endogenous) (from UniProt Q14008 1-2032)”, the binding result in assay [2] was “binds”.
On to “cortactin (CTTN) (endogenous) (from UniProt Q14247 1-550)”, for which the binding result with SPECC1L-BirA* (BioID/MS) is given as “binds”.

B1: SPECC1 (endogenous, U2OS) (protein, UniProt Q5M775 1-1068)
chain: MRSAAKPWNPAIRAGGHGPDRVRPLPAASSGMKSSKSSTSLAFESRLSRLKRASSEDTLNKPGSTAASGVVRLKKTATAGAISELTESRLRSGTGAFTTTKRTGIPAPREFSVTVSRERSVPRGPSNPRKSVSSPTSSNTPTPTKHLRTPSTKPKQENEGGEKAALESQVRELLAEAKAKDSEINRLRSELKKYKEKRTLNAEGTDALGPNVDGTSVSPGDTEPMIRALEEKNKNFQKELSDLEEENRVLKEKLIYLEHSPNSEGAASHTGDSSCPTSITQESSFGSPTGNQMSSDIDEYKKNIHGNALRTSGSSSSDVTKASLSPDASDFEHITAETPSRPLSSTSNPFKSSKCSTAGSSPNSVSELSLASLTEKIQKMEENHHSTAEELQATLQELSDQQQMVQELTAENEKLVDEKTILETSFHQHRERAEQLSQENEKLMNLLQERVKNEEPTTQEGKIIELEQKCTGILEQGRFEREKLLNIQQQLTCSLRKVEEENQGALEMIKRLKEENEKLNEFLELERHNNNMMAKTLEECRVTLEGLKMENGSLKSHLQGEKQKATEASAVEQTAESCEVQEMLKVARAEKDLLELSCNELRQELLKANGEIKHVSSLLAKVEKDYSYLKEICDHQAEQLSRTSLKLQEKASESDAEIKDMKETIFELEDQVEQHRAVKLHNNQLISELESSVIKLEEQKSDLERQLKTLTKQMKEETEEWRRFQADLQTAVVVANDIKCEAQQELRTVKRKLLEEEEKNARLQKELGDVQGHGRVVTSRAAPPPVDEEPESSEVDAAGRWPGVCVSRTSPTPPESATTVKSLIKSFDLGRPGGAGQNISVHKTPRSPLSGIPVRTAPAAAVSPMQRHSTYSSVRPASRGVTQRLDLPDLPLSDILKGRTETLKPDPHLRKSPSLESLSRPPSLGFGDTRLLSASTRAWKPQSKLSVERKDPLAALAREYGGSKRNALLKWCQKKTQGYANIDITNFSSSWSDGLAFCALLHTYLPAHIPYQELNSQEKKRNLLLAFEAAESVGIKPSLELSEMLYTDRPDWQSVMQYVAQIYKYFET
Turning to B1, in assay [1], the binding entry was “binds”.

B2: Syndecan SDC1 (endogenous) (protein, UniProt P18827 23-310)
chain: QIVATNLPPEDQDGSGDDSDNFSGSGAGALQDITLSQQTPSTWKDTQLLTAIPTSPEPTGLEATAASTSTLPAGEGPKEGEAVVLPEVEPGLTAREQEATPRPRETTQLPTTHLASTTTATTAQEPATSHPHRDMQPGHHETSTPAGPSQADLHTPHTEDGGPSATERAAEDGASSQLPAAEGSGEQDFTFETSGENTAVVAVEPDRRNQSPVDQGATGASQGLLDRKEVLGGVIAGGLVGLIFAVCLVGFMLYRMKKKDEGSYSLEEPKQANGGAYQKPTKQEEFYA
B2: in assay [3], the binding result was “binds”.
